# Data as given in the supplement of paper PMC12819154, “High-throughput peptide-centric local stability assay extends protein–ligand identification to membrane proteins, tissues and bacteria” (Nature Structural & Molecular Biology, 2025).
# Protein sequences, listed by entry. Tags and fused reporters are not part of them. Lines headed by an entry give the natural chain unless they say otherwise; changes in a name come on top.
# UniProt Q8C5H8: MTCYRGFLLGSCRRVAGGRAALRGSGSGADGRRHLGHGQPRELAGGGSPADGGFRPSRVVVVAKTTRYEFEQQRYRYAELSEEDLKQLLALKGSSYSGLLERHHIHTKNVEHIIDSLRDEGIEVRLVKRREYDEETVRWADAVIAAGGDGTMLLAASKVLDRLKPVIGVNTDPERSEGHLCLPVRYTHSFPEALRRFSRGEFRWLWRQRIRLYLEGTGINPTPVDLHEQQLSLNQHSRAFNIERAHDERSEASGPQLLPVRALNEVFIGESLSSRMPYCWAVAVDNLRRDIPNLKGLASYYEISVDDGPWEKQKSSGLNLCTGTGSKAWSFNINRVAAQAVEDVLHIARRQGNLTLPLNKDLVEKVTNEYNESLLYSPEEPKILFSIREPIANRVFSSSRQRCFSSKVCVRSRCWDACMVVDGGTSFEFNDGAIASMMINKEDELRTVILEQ
# UniProt Q8BX70: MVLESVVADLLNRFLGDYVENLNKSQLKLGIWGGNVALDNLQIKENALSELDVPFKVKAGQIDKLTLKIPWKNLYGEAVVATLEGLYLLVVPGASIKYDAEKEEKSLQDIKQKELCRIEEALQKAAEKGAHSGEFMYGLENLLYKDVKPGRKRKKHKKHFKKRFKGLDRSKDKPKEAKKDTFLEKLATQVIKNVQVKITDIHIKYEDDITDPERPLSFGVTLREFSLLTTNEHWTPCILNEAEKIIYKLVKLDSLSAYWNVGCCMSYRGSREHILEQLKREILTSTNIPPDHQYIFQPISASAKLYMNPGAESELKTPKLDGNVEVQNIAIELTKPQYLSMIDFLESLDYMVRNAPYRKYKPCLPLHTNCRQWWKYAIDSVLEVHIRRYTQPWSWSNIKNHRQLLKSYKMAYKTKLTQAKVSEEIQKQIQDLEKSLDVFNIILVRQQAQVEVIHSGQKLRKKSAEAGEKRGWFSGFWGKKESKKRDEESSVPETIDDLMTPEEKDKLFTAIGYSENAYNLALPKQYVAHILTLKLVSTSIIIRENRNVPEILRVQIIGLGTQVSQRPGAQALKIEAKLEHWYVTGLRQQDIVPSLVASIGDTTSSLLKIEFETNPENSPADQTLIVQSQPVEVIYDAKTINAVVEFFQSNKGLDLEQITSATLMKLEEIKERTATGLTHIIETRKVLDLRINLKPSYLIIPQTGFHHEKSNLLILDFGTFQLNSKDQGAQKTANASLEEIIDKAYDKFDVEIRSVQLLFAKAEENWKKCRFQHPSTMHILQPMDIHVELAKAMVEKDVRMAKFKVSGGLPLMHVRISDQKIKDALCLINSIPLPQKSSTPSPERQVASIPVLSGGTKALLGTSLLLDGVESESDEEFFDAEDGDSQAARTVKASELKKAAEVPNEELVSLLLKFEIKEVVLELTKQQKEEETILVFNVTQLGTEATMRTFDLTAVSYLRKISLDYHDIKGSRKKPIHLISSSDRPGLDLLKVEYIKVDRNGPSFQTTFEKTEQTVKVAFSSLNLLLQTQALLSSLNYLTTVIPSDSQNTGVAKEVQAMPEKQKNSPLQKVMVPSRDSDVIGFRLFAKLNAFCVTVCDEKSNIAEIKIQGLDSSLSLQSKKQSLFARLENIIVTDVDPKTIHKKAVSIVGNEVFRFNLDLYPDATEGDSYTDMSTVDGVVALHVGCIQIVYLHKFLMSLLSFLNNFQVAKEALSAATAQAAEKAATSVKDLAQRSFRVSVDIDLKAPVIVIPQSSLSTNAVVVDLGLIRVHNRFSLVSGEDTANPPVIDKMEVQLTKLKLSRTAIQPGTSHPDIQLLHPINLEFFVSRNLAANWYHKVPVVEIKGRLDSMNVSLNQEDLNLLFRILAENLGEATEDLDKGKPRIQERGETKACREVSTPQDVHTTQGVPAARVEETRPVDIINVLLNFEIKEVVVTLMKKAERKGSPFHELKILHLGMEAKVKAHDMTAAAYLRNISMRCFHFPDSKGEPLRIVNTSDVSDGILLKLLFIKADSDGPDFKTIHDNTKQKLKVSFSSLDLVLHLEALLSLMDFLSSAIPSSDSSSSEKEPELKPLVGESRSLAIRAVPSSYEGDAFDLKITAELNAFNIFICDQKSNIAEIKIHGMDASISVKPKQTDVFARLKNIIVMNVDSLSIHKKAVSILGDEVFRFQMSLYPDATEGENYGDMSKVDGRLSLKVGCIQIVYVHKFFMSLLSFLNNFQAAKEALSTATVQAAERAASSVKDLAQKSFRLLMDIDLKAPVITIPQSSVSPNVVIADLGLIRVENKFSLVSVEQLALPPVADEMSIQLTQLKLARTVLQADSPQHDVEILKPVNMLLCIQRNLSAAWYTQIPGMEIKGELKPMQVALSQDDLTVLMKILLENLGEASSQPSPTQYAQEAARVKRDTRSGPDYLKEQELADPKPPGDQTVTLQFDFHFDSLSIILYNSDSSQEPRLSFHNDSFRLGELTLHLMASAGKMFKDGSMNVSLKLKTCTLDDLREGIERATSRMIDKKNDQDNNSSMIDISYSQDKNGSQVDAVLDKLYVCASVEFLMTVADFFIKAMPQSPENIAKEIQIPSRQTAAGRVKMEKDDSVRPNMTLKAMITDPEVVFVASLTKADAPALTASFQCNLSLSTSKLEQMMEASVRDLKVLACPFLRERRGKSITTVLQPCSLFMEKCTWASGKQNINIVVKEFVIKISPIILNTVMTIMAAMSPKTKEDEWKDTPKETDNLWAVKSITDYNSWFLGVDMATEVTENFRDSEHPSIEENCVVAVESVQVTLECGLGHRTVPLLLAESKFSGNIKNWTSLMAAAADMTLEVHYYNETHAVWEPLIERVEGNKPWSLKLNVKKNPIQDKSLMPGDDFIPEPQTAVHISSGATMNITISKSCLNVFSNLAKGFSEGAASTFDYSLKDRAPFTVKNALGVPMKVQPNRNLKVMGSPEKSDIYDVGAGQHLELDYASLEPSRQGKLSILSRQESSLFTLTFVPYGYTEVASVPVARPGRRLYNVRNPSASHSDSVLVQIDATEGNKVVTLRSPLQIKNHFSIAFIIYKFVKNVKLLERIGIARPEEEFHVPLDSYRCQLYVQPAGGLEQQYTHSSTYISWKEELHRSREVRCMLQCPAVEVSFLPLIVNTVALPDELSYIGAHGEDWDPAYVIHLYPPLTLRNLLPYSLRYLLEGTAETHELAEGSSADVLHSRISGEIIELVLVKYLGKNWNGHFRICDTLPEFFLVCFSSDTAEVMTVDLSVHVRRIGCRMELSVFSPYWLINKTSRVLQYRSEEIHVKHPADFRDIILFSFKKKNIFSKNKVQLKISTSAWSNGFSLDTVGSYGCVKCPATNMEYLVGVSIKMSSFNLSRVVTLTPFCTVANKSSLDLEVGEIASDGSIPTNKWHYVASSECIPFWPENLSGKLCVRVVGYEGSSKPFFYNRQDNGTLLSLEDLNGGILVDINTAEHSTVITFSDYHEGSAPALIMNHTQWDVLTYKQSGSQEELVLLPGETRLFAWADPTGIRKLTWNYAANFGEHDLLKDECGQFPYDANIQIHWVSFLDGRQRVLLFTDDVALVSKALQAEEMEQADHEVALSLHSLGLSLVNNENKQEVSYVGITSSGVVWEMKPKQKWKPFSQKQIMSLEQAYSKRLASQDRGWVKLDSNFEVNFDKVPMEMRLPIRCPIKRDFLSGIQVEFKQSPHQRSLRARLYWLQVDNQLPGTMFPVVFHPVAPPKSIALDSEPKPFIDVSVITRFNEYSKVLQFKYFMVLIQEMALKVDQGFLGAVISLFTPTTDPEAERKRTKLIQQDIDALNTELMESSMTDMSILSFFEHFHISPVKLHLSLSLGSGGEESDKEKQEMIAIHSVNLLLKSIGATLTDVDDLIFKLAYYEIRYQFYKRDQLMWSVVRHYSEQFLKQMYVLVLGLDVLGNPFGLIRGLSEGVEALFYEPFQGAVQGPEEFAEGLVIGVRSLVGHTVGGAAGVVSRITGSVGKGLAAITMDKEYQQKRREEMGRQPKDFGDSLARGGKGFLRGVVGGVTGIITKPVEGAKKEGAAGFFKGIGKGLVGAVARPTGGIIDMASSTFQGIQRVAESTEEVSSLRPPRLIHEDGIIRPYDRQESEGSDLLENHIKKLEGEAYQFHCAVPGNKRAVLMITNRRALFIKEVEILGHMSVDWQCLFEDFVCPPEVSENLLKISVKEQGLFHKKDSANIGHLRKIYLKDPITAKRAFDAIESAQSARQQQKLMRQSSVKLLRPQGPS
# UniProt Q8BZS9: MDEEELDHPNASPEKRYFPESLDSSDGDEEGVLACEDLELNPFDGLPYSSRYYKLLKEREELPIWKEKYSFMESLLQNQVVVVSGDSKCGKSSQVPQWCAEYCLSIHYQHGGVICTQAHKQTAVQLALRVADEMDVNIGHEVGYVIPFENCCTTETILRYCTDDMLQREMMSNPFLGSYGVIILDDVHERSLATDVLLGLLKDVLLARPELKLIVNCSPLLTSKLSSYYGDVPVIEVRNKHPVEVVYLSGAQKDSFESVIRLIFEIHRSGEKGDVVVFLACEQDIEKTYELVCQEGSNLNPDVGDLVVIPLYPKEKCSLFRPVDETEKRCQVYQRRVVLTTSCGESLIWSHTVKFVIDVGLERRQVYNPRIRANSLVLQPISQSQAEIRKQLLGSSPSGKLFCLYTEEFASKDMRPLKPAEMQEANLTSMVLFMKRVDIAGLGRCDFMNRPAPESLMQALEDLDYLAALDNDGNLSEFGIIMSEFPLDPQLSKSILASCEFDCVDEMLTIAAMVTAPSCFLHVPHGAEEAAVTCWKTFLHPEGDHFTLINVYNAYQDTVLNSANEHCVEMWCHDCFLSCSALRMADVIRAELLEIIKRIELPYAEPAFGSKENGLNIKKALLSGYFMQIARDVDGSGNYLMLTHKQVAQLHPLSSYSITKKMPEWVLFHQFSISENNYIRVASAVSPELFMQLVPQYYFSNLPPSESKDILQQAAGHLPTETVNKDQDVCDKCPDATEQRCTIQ
# UniProt Q8C1Q6: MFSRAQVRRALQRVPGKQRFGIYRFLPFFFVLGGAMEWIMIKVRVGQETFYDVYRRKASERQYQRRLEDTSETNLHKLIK
# UniProt Q8C811: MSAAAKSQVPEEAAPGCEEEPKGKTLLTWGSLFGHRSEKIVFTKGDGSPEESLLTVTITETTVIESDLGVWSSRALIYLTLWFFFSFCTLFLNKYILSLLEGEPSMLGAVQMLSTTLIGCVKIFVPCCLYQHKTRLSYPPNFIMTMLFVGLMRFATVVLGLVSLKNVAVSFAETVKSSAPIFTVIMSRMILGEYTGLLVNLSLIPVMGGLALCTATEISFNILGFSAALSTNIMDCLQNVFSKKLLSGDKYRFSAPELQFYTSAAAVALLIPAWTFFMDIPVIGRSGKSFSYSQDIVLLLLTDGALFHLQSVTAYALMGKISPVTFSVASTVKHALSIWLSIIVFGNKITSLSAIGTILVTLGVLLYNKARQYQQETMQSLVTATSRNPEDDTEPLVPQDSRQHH
# UniProt Q8C0D5: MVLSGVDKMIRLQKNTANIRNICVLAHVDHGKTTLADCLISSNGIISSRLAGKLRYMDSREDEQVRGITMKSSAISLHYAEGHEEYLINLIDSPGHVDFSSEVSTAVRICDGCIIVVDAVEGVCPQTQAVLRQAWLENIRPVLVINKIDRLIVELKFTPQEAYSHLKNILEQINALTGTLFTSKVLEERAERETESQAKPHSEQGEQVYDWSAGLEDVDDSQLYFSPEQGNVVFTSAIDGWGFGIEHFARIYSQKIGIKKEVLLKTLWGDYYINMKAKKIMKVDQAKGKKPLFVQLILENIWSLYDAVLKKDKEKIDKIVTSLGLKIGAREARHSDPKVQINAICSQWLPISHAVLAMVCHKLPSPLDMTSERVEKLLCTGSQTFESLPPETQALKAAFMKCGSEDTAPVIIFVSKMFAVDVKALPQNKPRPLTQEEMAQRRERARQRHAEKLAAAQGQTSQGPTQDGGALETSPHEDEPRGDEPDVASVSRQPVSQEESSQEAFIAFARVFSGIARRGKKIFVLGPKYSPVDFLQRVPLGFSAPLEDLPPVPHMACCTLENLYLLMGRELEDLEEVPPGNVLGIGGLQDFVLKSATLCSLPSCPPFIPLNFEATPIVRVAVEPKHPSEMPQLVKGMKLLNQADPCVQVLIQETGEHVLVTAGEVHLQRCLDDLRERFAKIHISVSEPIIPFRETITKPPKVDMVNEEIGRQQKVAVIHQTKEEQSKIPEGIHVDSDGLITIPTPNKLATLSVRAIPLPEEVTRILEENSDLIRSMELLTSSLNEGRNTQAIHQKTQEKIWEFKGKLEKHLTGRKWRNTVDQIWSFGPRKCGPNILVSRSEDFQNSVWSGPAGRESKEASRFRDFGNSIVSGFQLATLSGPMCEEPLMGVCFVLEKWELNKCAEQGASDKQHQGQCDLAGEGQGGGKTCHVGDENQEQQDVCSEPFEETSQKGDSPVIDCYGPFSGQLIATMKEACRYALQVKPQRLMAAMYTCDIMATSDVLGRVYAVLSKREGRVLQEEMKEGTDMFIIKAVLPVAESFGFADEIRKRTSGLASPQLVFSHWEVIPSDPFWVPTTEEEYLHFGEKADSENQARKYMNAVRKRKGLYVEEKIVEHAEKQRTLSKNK
# This is one part of the list. Most entries show no effect beyond the scatter of the controls.
# Compound: CN[C@@H]1C[C@H]2O[C@@](C)([C@@H]1OC)n1c3ccccc3c3c4c(c5c6ccccc6n2c5c31)C(=O)NC4 [staurosporine]
# Experiment: log2 fold change of tryptic peptide abundance, ligand vs vehicle (limited proteolysis) (log2 ratio); higher = more trypsin-susceptible (destabilized)
# Settings: ligand concentration: 20 uM; sample: mouse liver crude lysate; replicate design: treated separately
row,Target,log2 fold change
1,"UniProt Q8C0D4 (peptide sequence: GAVIEMASK, peptide start residue: 518)",0.233
2,"UniProt Q8BZG5 (peptide sequence: AALETVIR, peptide start residue: 343)",0.48
3,"UniProt Q8C4V4 (peptide sequence: YSLEQIHWEVSK, peptide start residue: 403)",-0.245
4,"UniProt Q8C013 (peptide sequence: YEQDADPR, peptide start residue: 357)",0.908
5,"UniProt Q8BXJ8 (peptide sequence: VAGKPLKPK, peptide start residue: 388)",0.56
6,"UniProt Q8C5P5 (peptide sequence: DVVAGIQHNFK, peptide start residue: 171)",0.651
7,"UniProt Q8C5H8 (peptide sequence: QGNLTLPLNKDLVEK, peptide start residue: 351)",-0.19
8,"UniProt Q8CAK1 (peptide sequence: AAYAHFLNVQGR, peptide start residue: 94)",-0.643
9,"UniProt Q8BY71 (peptide sequence: FQELVEDYRR, peptide start residue: 399)",-0.0665
10,"UniProt Q8BX70 (peptide sequence: EQGLFHKK, peptide start residue: 3688)",-0.331
11,"UniProt Q8BWR4 (peptide sequence: EFTNLSGIR, peptide start residue: 36)",0.27
12,"UniProt Q8BZS9 (peptide sequence: DQDVCDKCPDATEQR, peptide start residue: 726)",0.877
13,"UniProt Q8C176 (peptide sequence: FSDNYYR, peptide start residue: 779)",0.0513
14,"UniProt Q8C854 (peptide sequence: LGSAMIGGFAGR, peptide start residue: 426)",-0.211
15,"UniProt Q8C0V0 (peptide sequence: SLLNHTPPSGRPR, peptide start residue: 33)",-0.274
16,"UniProt Q8C569 (peptide sequence: EGQLNGSSAAHGEIR, peptide start residue: 333)",0.373
17,"UniProt Q8BZ60 (peptide sequence: SQNSSVSSTTGK, peptide start residue: 339)",-0.356
18,"UniProt Q8BVY0 (peptide sequence: KKVPVSVNLLAK, peptide start residue: 176)",0.212

# Individual results from the list:
# For log2 fold change, UniProt Q8CAK1 (peptide sequence: AAYAHFLNVQGR, peptide start residue: 94) is entered as -0.643
# For log2 fold change, UniProt Q8C569 (peptide sequence: EGQLNGSSAAHGEIR, peptide start residue: 333) is entered as 0.373

# (cont.)

row,Target,log2 fold change
1,"UniProt Q8C4Q6 (peptide sequence: EAQAQHNNSEFTEEQKK, peptide start residue: 45)",0.22
2,"UniProt Q8C180 (peptide sequence: YPSFGDASSHPSSR, peptide start residue: 153)",-0.228
3,"UniProt Q8BX90 (peptide sequence: LSESTSYK, peptide start residue: 1013)",0.184
4,"UniProt Q8C1Q6 (peptide sequence: LEDTSETNLHK, peptide start residue: 67)",-0.222
5,"UniProt Q8C0L0 (peptide sequence: EDGAHPADTQDVVEDALR, peptide start residue: 307)",-0.0346
6,"UniProt Q8C811 (peptide sequence: TLLTWGSLFGHR, peptide start residue: 25)",0.162
7,"UniProt Q8BXK4 (peptide sequence: KYREVGDFDK, peptide start residue: 48)",0.731
8,"UniProt Q8BYL4 (peptide sequence: GLEALAANHAR, peptide start residue: 142)",0.157
9,"UniProt Q8C0G2 (peptide sequence: EKEEELR, peptide start residue: 461)",-0.00362
10,"UniProt Q8BZ05 (peptide sequence: IGGLPLIPIQHER, peptide start residue: 1553)",-0.252
11,"UniProt Q8C2K1 (peptide sequence: LLEEEEEK, peptide start residue: 462)",0.17
12,"UniProt Q8C735 (peptide sequence: FTATMSTPDKK, peptide start residue: 90)",-0.54
13,"UniProt Q8C754 (peptide sequence: KPMTNYQIPQAALLK, peptide start residue: 251)",0.55
14,"UniProt Q8C0D7 (peptide sequence: RLDTDLAR, peptide start residue: 99)",-0.384
15,"UniProt Q8C963 (peptide sequence: SQLQAQSK, peptide start residue: 166)",0.563
16,"UniProt Q8C0T5 (peptide sequence: KPEGTINSVGFMDTR, peptide start residue: 1468)",-0.426
17,"UniProt Q8C0D5 (peptide sequence: IDKIVTSLGLK, peptide start residue: 316)",0.612
18,"UniProt Q8BWN8 (peptide sequence: GPILFVAGQDDHCWR, peptide start residue: 316)",-0.228
